Measurements from “University of Dundee, Small-Polar-MMV Screening Library” (2021), ChEMBL document CHEMBL3988442.

Sequences of proteins named here, by UniProt entry; tags and fusion partners are left off.
UniProt E9BF75, entry or part of it: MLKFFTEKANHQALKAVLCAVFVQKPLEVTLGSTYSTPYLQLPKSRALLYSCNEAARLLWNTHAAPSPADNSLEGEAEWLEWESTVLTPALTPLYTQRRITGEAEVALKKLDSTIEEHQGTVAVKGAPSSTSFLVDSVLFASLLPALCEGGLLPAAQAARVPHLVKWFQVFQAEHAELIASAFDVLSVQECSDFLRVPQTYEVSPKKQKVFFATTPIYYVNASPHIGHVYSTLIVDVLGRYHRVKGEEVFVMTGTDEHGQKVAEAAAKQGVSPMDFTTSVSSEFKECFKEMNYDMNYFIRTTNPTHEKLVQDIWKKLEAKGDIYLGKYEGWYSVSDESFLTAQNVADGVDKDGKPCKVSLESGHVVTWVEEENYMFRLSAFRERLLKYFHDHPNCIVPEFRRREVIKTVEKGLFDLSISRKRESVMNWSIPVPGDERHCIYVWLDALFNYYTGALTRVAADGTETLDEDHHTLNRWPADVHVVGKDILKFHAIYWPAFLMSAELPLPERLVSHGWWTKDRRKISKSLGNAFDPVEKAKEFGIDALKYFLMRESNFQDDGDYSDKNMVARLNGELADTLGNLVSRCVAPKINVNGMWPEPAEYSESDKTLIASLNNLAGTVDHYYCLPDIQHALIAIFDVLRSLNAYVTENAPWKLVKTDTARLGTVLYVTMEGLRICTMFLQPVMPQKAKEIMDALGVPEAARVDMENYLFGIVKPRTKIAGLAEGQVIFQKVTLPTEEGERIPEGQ

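Methionyl-tRNA synthetase (putative), Leishmania donovani (UniProt E9BF75). Primary screen of methionyl-tRNA synthetase; the read-out is not stated. The test concentration is not given. The values are filed as inhibition. Of about 68,000 compounds tested this way, about 24 (0.035%) reached 50% or more in at least one test.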

Results are percentages, as filed. The record does not define 0% and 100%; most values in the screen are far below 50% and negative numbers occur (in some assays of this library far below -100). Compounds were drawn at random from those tested, without regard to their results.

| structure | Inhibition |
|---|---|
| `O=C1CC2(CCCNC2)C(=O)N1Cc1ccccc1` (stereo not drawn) | -1.01 |
| `Cc1csc(NC(=O)c2cnc(C3CCNCC3)cn2)n1` | 16.13 |
| `COCCn1c2c(ccc1=O)CC(NS(C)(=O)=O)CC2` (stereo not drawn) | 3.136 |
| `CCC(CC)C(=O)NS(=O)(=O)CCc1ccccc1` | 14.78 |
| `CC(C)(C(N)=O)S(=O)(=O)c1ccc(Br)cc1` | 13.18 |
| `O=C(NCc1cscn1)NC1CCN(c2ncccc2Cl)C1` (stereo not drawn) | 20.83 |
| `CN(CCn1cccn1)S(=O)(=O)c1cccc(Cl)c1C#N` | 13.69 |
| `COCC(=O)N1CCN(C(=O)c2cccs2)[C@@H](C(=O)OC)C1` | 13.74 |
| `CC(=O)N1CCC2(CC1)C(=O)N(C)c1ccc(F)cc12` | 14.57 |
| `O=C(O)c1ccc(CC2CCN(Cc3ccc(-c4cc[nH]n4)o3)C2)cc1` (stereo not drawn) | 20.87 |
| `Cc1cc(C)cc(CN2CCC3(CC2)CC(Nc2ncccn2)CO3)c1` (stereo not drawn) | 17.96 |
| `CCCN1CCN(S(=O)(=O)c2ccccc2OC)[C@H]2CS(=O)(=O)C[C@H]21` | 15.33 |
| `Cc1cccnc1C(Nc1nccc(C2CCCC2)n1)C1CC1` (stereo not drawn) | 10.65 |
| `c1cnnc(N2CCCC(NCc3ccc(-n4cccn4)cc3)C2)c1` (stereo not drawn) | 14.58 |
| `O=C(Cn1nc(-c2cccs2)ccc1=O)N1CCCCCC1` | 10.37 |
| `CN(C)[C@@H]1CCN(C(=O)C2CCOCC2)[C@H]1Cc1ccncc1` | 7.299 |
| `CCOCC1CC2(CCN(C(=O)c3ncccn3)CC2)CO1` (stereo not drawn) | 9.804 |
| `c1cnn(C[C@@H]2C[C@@H]3CN(CC4CC4)CC[C@@H]3N2c2nccs2)c1` | 9.29 |
| `CC(C)(C)OC(=O)N1CCCN(c2nnc(Br)s2)CC1` | 15.09 |
| `CC(C)c1noc(CCNC(=O)NCC2Cc3ccccc3O2)n1` (stereo not drawn) | 24.93 |
| `c1cnc(-c2cnc(N3CCSCC3)nc2C2CCCO2)cn1` (stereo not drawn) | 14.04 |
| `CN(C)CC(C)(C)CN1CCC(c2ccnc(-c3cccc(O)c3)c2)C1` (stereo not drawn) | 12.1 |
| `Cc1occc1CNC(=O)C1CCN(C(=O)OC(C)(C)C)C1` (stereo not drawn) | 12.15 |
| `O=C(NCC(F)(F)F)c1ccc(-n2cncn2)nn1` | 10.45 |
| `c1cnn(CC2CCCN2Cc2noc(C3CC3)n2)c1` (stereo not drawn) | 17.38 |
| `CC(C)CN1CCN(C(=O)c2[nH]nnc2Nc2ccccc2F)CC1` | 14.16 |
| `Cc1cccc(-c2noc([C@@H]3C[C@@H](O)CN3Cc3ccc(CO)o3)n2)c1` | 6.189 |
| `Cc1cc(CCC(=O)NCc2nccn2C)ccc1Br` | 12.15 |
| `CCNc1ncc(CN(Cc2ccccc2)CC(C)CO)cn1` (stereo not drawn) | 4.29 |
| `CO[C@H]1CN(Cc2cc(Cn3cncn3)c(C)cc2C)CC[C@H]1N` | 2.892 |
| `CC(C)c1nc(CN(C)C2CCN(CCn3cc(C#N)cn3)C2)no1` (stereo not drawn) | 15.95 |
| `COCCS(=O)(=O)Cc1nnnn1-c1ccccc1` | 0.2717 |
| `COc1coc(C(=O)Nc2nc(-c3ccccn3)cs2)cc1=O` | 13.44 |
| `COc1cc(N2CCC3(CC(=O)N(Cc4csc(C)n4)C3)C2)ncn1` (stereo not drawn) | 15.06 |
| `CCOCC1CN(S(=O)(=O)N(C)C)Cc2cnn(CC3CC3)c21` (stereo not drawn) | 6.015 |
| `COC1COC2(CCN(C(=O)c3ncccn3)CC2)C1` (stereo not drawn) | -3.759 |
| `O=C1COc2c(cccc2C(=O)N2CCCC2Cn2cccn2)N1` (stereo not drawn) | 8.591 |
| `CNCCc1nc2cc(F)ccc2[nH]1` | 8.78 |
| `O=C(Cn1ncc2ccccc21)Nc1ccnn1CC1CCOC1` (stereo not drawn) | 16.62 |
| `Cc1cc(N2CC(c3n[nH]c4nccnc34)C2)ncn1` | 12.86 |
| `CC(C)c1cc(C(=O)NCCn2nnc3ccccc32)no1` | -5.556 |
| `O=C(NCCN1CCOCC1)c1nc(-c2ccc3[nH]ccc3c2)no1` | 12.42 |
| `COc1cc2c(cc1CNC(Cc1cccs1)c1nccs1)OCCO2` (stereo not drawn) | 13.35 |
| `CN1[C@H](CN2CCCC2)C[C@@H]2CN(C(=O)c3cccn3C)CC[C@@H]21` | 13.13 |
| `COc1ccccc1CN1CCC(c2nn(CCN)c3nccnc23)C1` (stereo not drawn) | 43.37 |
| `Cc1ccc(CN2CCOC3(COCCN(C(C)C)C3)C2)s1` (stereo not drawn) | 3.546 |
| `CN(Cc1ccccc1)CC(O)Cn1cnc2ccccc2c1=O` (stereo not drawn) | 7.975 |
| `O=C(c1ccc(Cn2cccc2)cc1)N1CCN(CCO)CC1` | 12.54 |
| `Cn1ccc(C(=O)N2CCC3(CC2)CC(Nc2cnccn2)CO3)n1` (stereo not drawn) | 8.743 |
| `Cc1cnc(C(=O)N2CCCCC2c2ccc(CN(C)C)cc2)cn1` (stereo not drawn) | 2.198 |
| `Cc1ccc(N2CCCC(NCc3ccsc3)C2)nn1` (stereo not drawn) | 9.15 |
| `OC(CN1CCCCCCC1)c1ccc(F)cc1` (stereo not drawn) | 5.102 |
| `CCc1nc(CN2CCCN(Cc3nnc(C4CC4)o3)CC2)no1` | 14.74 |
| `O=C(c1ncccc1O)N1CCN(Cc2ccco2)C(CCO)C1` (stereo not drawn) | 15.03 |
| `Cc1cnc(C(=O)N2CCCN(Cc3cnn(C(C)C)c3)CC2)cn1` | 15.05 |
| `CC(C)NC(=O)C1CCc2nnc(CNC(=O)C3CC3)n21` (stereo not drawn) | 9.714 |

The first 7 entries again:

{"structure": "O=C1CC2(CCCNC2)C(=O)N1Cc1ccccc1", "stereo": "stereo not drawn", "Inhibition": -1.01}
{"structure": "Cc1csc(NC(=O)c2cnc(C3CCNCC3)cn2)n1", "Inhibition": 16.13}
{"structure": "COCCn1c2c(ccc1=O)CC(NS(C)(=O)=O)CC2", "stereo": "stereo not drawn", "Inhibition": 3.136}
{"structure": "CCC(CC)C(=O)NS(=O)(=O)CCc1ccccc1", "Inhibition": 14.78}
{"structure": "CC(C)(C(N)=O)S(=O)(=O)c1ccc(Br)cc1", "Inhibition": 13.18}
{"structure": "O=C(NCc1cscn1)NC1CCN(c2ncccc2Cl)C1", "stereo": "stereo not drawn", "Inhibition": 20.83}
{"structure": "CN(CCn1cccn1)S(=O)(=O)c1cccc(Cl)c1C#N", "Inhibition": 13.69}